Results deposited as PubChem BioAssay AID1259254 (NCATS, 2017)
Here is a random part of about 59,000 deposited reagents. About 1,550 of them (2.6%) count as active. 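G2 share is only a proxy for re-replication; each gene was hit by three separate siRNAs, and active genes were retested.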 The numbers tell different reagents against one gene apart. Further read-outs or replicates are left out here. Not given: the amount of reagent.

Aim: 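Genome-wide screen for genes that prevent DNA re-replication in cancer cells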 (primary screen)
System: human HCT116 colorectal cancer cells
Reagent: single siRNA against human genes
Duration: 3 days
Measurement: 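Imaged Hoechst DNA stain sorts each cell into a cycle phase by DNA amount; per plate, G2 fraction set to 0% for non-targeting and 100% for GMNN siRNA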
Scale: G2 robust z-score and G2 cells, % of GMNN control: higher = more G2 cells, more excess DNA replication
Active means: 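An siRNA counts as active if its G2 robust z-score lies at least 5 MADs above the screen median; here such calls match roughly 38% of GMNN control or more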

PPCDC (GeneID 60490) #1 showed G2 robust z-score -0.31; G2 cells, % of GMNN control 0.783; inactive.
Knock-down of PPCDC (GeneID 60490) #2 gave: G2 robust z-score 0.501; G2 cells, % of GMNN control 6.49; inactive.
After knock-down of PPCDC (GeneID 60490) #3, the record shows G2 robust z-score 4.7; G2 cells, % of GMNN control 36.1; inactive.
CBS (GeneID 875) #1 scored G2 robust z-score 4.31; G2 cells, % of GMNN control 33.3; inactive.
CBS (GeneID 875) #2 showed G2 robust z-score -0.887; G2 cells, % of GMNN control -3.28; inactive.
Silencing of CBS (GeneID 875) #3 came out at: G2 robust z-score -0.149; G2 cells, % of GMNN control 1.92; inactive.
Silencing of MAP9 (GeneID 79884) #1 resulted in: G2 robust z-score 0.00694; G2 cells, % of GMNN control 3.02; inactive.
After knock-down of MAP9 (GeneID 79884) #2, the screen gave G2 robust z-score 1.5; G2 cells, % of GMNN control 13.5; inactive.
MAP9 (GeneID 79884) #3 gave G2 robust z-score 0.845; G2 cells, % of GMNN control 8.92; inactive.

2 entries from above, set out differently.
PPCDC (GeneID 60490) #2
- G2 robust z-score: 0.501
- G2 cells, % of GMNN control: 6.49
- outcome: inactive

PPCDC (GeneID 60490) #3
- G2 robust z-score: 4.7
- G2 cells, % of GMNN control: 36.1
- outcome: inactive

Additional reagents follow.
Against KCNC2 (GeneID 3747) #1, the values are G2 robust z-score 2.46; G2 cells, % of GMNN control 20.3; inactive.
After knock-down of KCNC2 (GeneID 3747) #2, the record shows G2 robust z-score -0.0368; G2 cells, % of GMNN control 2.71; inactive.
Depletion of KCNC2 (GeneID 3747) #3 gave: G2 robust z-score -0.331; G2 cells, % of GMNN control 0.641; inactive.
For TTR (GeneID 7276) #1, the entry reads G2 robust z-score -0.504; G2 cells, % of GMNN control -0.577; inactive.
Against TTR (GeneID 7276) #2, the values are G2 robust z-score 0.0209; G2 cells, % of GMNN control 3.11; inactive.
Against TTR (GeneID 7276) #3, the entry reads G2 robust z-score -0.186; G2 cells, % of GMNN control 1.66; inactive.
With knock-down of FABP6 (GeneID 2172) #1, the record shows G2 robust z-score -0.805; G2 cells, % of GMNN control -2.69; inactive.
FABP6 (GeneID 2172) #2 showed G2 robust z-score -0.78; G2 cells, % of GMNN control -2.52; inactive.
Against FABP6 (GeneID 2172) #3 the deposit lists G2 robust z-score 1.16; G2 cells, % of GMNN control 11.1; inactive.
